According to patent US20160169913A1:
Results are given in words; binding and its absence hold for the method and conditions named. Some entries that bind do so weakly or less than the wild type.

Chains of the proteins cited; added tags and fusions are not shown. Residues count along the entry.
UniProt P05067, residues 672-713: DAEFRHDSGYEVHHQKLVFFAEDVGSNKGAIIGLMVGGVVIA

Legend:
[1] = target: Aβ oligomer (UniProt P05067); experiment: PLISA compared with ELISA, O.D. against Aβ oligomer concentration
[2] = target: Aβ oligomer (UniProt P05067); experiment: PLISA in buffer or 10% CSF, signal ratio of monomer or fiber to oligomer
[3] = target: Aβ oligomer (UniProt P05067); experiment: PLISA dose response, Aβ oligomer in solution
[4] = target: Aβ oligomer (UniProt P05067); experiment: PLISA in buffer and 10% CSF, signal ratio of monomer or fiber to oligomer

- binding [1]: binds
- binding [2]: binds
- binding [3]: binds
- binding [4]: binds
B1: peptide probe AD317 (P22, biotin labeled with thrombin site linker, at C-terminus) (peptide)
peptide: KLVFFAEDVGSNKHAIIELMKGLVPRGSGK
modifications: biotin labeled with thrombin site linker at C-terminus (Table 1)
